From PubChem BioAssay AID1508600 (Functional Genomics Laboratory (NCATS/FGL), 2020)
Among all 53,000 sequences or so, about 3,700 (7%) were called active.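 The calls were made as follows: active = gene knockdowns whose robust z-score for IL-1 alpha signal is at least 2 or at most -2, so actives lie on both sides; inactive = the rest.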 The list shows a part of the results.

Assay: Components of the Cytosolic LPS Sensing Pathway: Gene Identification via Genome-wide siRNA Screen;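 also: robust z of the log signal after scaling to non-targeting control siRNA wells of the plate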
Settings: RAW264.7 macrophages, IL-1a HTRF, actives lie on both sides, screened at 100 nM (by protocol), cells primed 5 h with Pam3CSK4 first
Procedure, shortened: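 Using IL-1a HTRF as read-out, the screen measured release from RAW264.7 cells after 48h siRNA knockdown (100 nM), 5 h Pam3CSK4 priming and 24 h cytosolic LipidA. Values were expressed relative to negative-control wells as robust z-scores.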

Sequence | z-score
GGAAACAUGUCCACACUGCTT against 2700062C07Rik | inactive: 0.67
CCAACCUAUAAGUUAAUGATT against Mrps22 | inactive: -0.735
GGCAUAUCCAGAUAAGACCTT against Tacc1 | inactive: -0.945
GCUAGAACUCGAUGUGGAUTT against Mapk8ip2 | inactive: 0.96
GGCUGUGUGAAUUUCAUGGTT against Reln | inactive: -0.596
GGCAAAAUGAAGAAGCUGATT against Hdac6 | inactive: -1.3
GCACCUCCACCAAAAAAACTT against Cd52 | inactive: -0.0616
GGAUUUCCCAGGAAGCGAATT against Septin4 | inactive: -0.711
CGAGAUGGAAUAUCGCACATT against Cyyr1 | inactive: 1.74
GCUACAGAUUUCAGGAAAGTT against Slc22a14 | inactive: 0.145
GGGACAGCUUUUGUGACUCTT against Raver1 | active: -2.16
GGAGAUGUUAAUUGAAGUCTT against Ap3b1 | inactive: 0.244
GGAAAGCAAGUUCACAGUGTT against Olfr352 | inactive: -0.857
GCCGGAGUUAUGAAAGGAGTT against Srsf10 | inactive: 0.701
GCACAUUUAACCAAAAAGCTT against Odam | inactive: -0.594
GCUGUCACACCUAGUGUCATT against Olfr1457 | inactive: -0.662
GGAUGAACAUCAAAGAAGATT against Afg1l | inactive: 0.462
GGUCCUUCAGUGUAAAUCUTT against Cbr2 | inactive: -0.534
CCAGUGUAAGUUUGAUCAUTT against Zc3h8 | inactive: 0.338
GCUAGGCACAAGGUUUUUUTT against Rem1 | inactive: 0.616
GGGCCUUUGGAUGUUGCUATT against Abcc10 | inactive: 1.11
GCCGAGAGGGAUGUGUAUATT against Psmb1 | active: -2.54

Sequence | z-score
GCAUAAUUCUAAAGACGGGTT against Zfp143 | inactive: -0.1
GGGUUUGAACUGGUGAUUGTT against Cenpp | inactive: -0.525
CCAAAAAAGUUAGUUGUGGTT against Phf6 | inactive: 1.23
GGAAUGAAAAACCUACAUGTT against Cxcl13 | inactive: 0.453
GGAGCAGAUGGUUCAUGUCTT against Olfr547 | inactive: -1.14
CCAUGCGAAAGAGUAUAAATT against Mtss2 | inactive: 0.152
GGUGCUCUGCAUAUUCUGGTT against Olfr654 | inactive: 0.55
GGUGUCAAUAACAUAUCAGTT against Nav1 | inactive: 0.749
GCUAAAGCAGCCAAGUAUGTT against Eln | inactive: 0.451
CGAAAACGUGAAAUAUCUCTT against Gpd1l | inactive: -0.399
CGUGUCAGCUAUUCAUUAATT against Osbpl5 | inactive: 0.644
GGGCCAGUACUGUAGCUGUTT against Golga3 | inactive: 0.851
CGACAAGACGAACAUCAAGTT against Nrn1 | inactive: 0.746
GCUAAAAUUGGAUCAAGGATT against Ackr2 | inactive: 1.39
CCGCGUCUGUAUUUGAUAUTT against Sccpdh | inactive: 1.68
GGAUAUACAAAGGAACGCATT against Wdr20rt | inactive: -0.862
GCCUCAGACAGACUUCUUGTT against Rpain | inactive: -0.278
GGGCUAUCUAUCAUAGUUUTT against Scp2 | inactive: 1.17
CCGUCUAUGUAUCGGUGUUTT against Prlhr | inactive: 1.5
GAGGUUACUUCAAAGACAATT against Med31 | inactive: -0.233
GGGAGACUGCUUCUAGCUGTT against Ncdn | inactive: -0.89
GGAAGCUUCAGGAGUAUAUTT against Sdc2 | inactive: -0.326

Sequence | z-score
GUGUUUACACCCAAAAUGCTT against Olfr906 | inactive: -1.25
GUGUGACUUUUUGACUAUUTT against Klhl2 | inactive: 0.149
GGGUAUGGAUUCAGGUAGATT against Ppp3r2 | inactive: -0.847
GGAAGGAUCUAAUCUUUUUTT against Vamp2 | inactive: 1.56
GGCAGCAGUAAAGAAAAAGTT against Aimp2 | inactive: -0.598
GGAUUGCUGUGCCUUAUGATT against Il34 | inactive: -1.81
GGCUUUGAAAGUUACCGGGTT against Sipa1 | inactive: -0.454
GGUUGUUGGAAAAAUAGAUTT against Tmem175 | inactive: -0.0383
GGACAUUGAGAACAUUAUCTT against Caln1 | inactive: -1.14
CGAACAACAGAGUAAAAUUTT against Ank2 | inactive: -0.535
GGAAGAAGAGGAGGAGAUGTT against Zbtb7b | active: 3.17
GGCUCUGUCAAGUUCAUCATT against Tgm2 | inactive: -0.338
GGAAUCAAACGGACAAACATT against Lmod1 | inactive: 0.773
GGAAUAUCCCAACAUCUGUTT against Upp1 | inactive: -0.899
GCCACACACGAUUUCAAGUTT against H3c1 | inactive: -1.18
GGAGAGCGAAGAAGACUGUTT against Psen2 | inactive: 1.21
GGAGUAGUAGCUGAAUUUGTT against Abcc3 | inactive: 0.317
CCAAUAACUACUCAUACCCTT against Ints1 | inactive: 0.105
GGCUAGAGAGGAUCUUGAGTT against Cdkn2a | inactive: 0.273
GACAGUGCACGAUCUGAUUTT against Pfn3 | inactive: 0.274
GCAUUACAUAACAUGGCCATT against Sumo3 | inactive: -0.616
GGAAGAAGCCCAAGGACUUTT against Donson | inactive: -1.59

Given tab-delimited: part of the list above.
Sequence	z-score
GGAAGGAUCUAAUCUUUUUTT against Vamp2	inactive: 1.56
GGCAGCAGUAAAGAAAAAGTT against Aimp2	inactive: -0.598
GGAUUGCUGUGCCUUAUGATT against Il34	inactive: -1.81
GGCUUUGAAAGUUACCGGGTT against Sipa1	inactive: -0.454
GGUUGUUGGAAAAAUAGAUTT against Tmem175	inactive: -0.0383
GGACAUUGAGAACAUUAUCTT against Caln1	inactive: -1.14

Following part.

Sequence | z-score
GCAACAAAUUCCUAGGCACTT against Pmp2 | inactive: -0.762
GCACUUCGCCCACUGUUUATT against Nhej1 | inactive: -1.58
CCAAAGUUAUCUUUUAUGGTT against D830013H23Rik | inactive: -0.282
GGGACUACCAUUUGUUAAUTT against Tktl1 | inactive: 0.751
GAGCCAGUCCAUCAUGAUGTT against Pdgfrl | inactive: -0.642
CGGCGUAUGAGGAUUGGUUTT against Atp8b1 | inactive: -0.739
GGAACGAGAUGCAGCUAUCTT against Cry1 | inactive: -0.836
GGAUUUACUUCACUAAUCCTT against Vmn2r37 | inactive: 0.645
GGAUCCUGCAUCUUAUAGUTT against Tcstv3 | inactive: 0.468
GGAGACUGUGGAUUUAAUUTT against Sult1a1 | active: 2.07
GCCAUUCCGGCAGUAUUACTT against Pdcd7 | inactive: 0.0894
CGGAUGUGAGAAAAGAGUUTT against Ndufc1 | inactive: -0.0739
CCUCAAGGGCUGAUGCAUGTT against Gpkow | inactive: -0.528
AGUGCUCAUUAACUGUCGCTT against Snrpd2 | active: -2.75
GGCUGAAGAGAAUCUUUUATT against Il9r | inactive: -0.368
GGAUCUCUGUUUCUCAAAATT against Slc19a3 | inactive: -0.146
CGGACUCGAUAACCAUCAGTT against Smurf1 | inactive: -1.9
GGUGCAGCACUUCAAAGUGTT against Grap | active: 2.41
GCUUGUUGGUGGUCUCCUGTT against Spink7 | active: -2.28
GGUCACUUCCUUAAUUUUATT against Disc1 | inactive: -1.62
GGAGAAUGGUCUUAGGUUUTT against Tubb2b | inactive: 1.85
CGGAAUCUGACUGGUAUCGTT against Banp | inactive: -1.21

Sequence | z-score
GGAAGAUGCCAUUUAUUGGTT against Sgpl1 | inactive: -0.273
GGGACAAUCAACACAAAAUTT against Ythdf3 | inactive: 0.172
GGGAACAAAAACAUAAAAGTT against Otub2 | inactive: -1.17
GGUUUUAGAAUUCUGGACGTT against Plppr2 | inactive: 0.243
GGAAAUUUGAGACUCUGCUTT against Nsun6 | inactive: -0.477
UUGACUCACCUUCCGAGGUTT against Lce1a1 | inactive: 0.0827
GGAAUGCAAACAGCACUUGTT against Rab33b | inactive: -1.58
GGGAGAUCCGAAGUGGAUCTT against Sult2a2 | inactive: -0.665
GGAGAGAUGCCUUUUAAGUTT against Zfp954 | inactive: -0.252
CCUCUCCUACACUUCAAAATT against Unc45b | inactive: 0.221
GGGAAUGUGACCAUCAAGCTT against Arl8a | inactive: 0.931
GGAAGAGGAUGACAAGACATT against Yipf2 | inactive: 0.605
CGCGUCAUUAUCAAGUGCCTT against Dnpep | inactive: 1.64
CGAGAUAUUCGUGGACUAUTT against Snrnp35 | inactive: -1.65
GCUUUGACAACCUCUACUCTT against Armh3 | inactive: 0.369
GCUGUUACCAGGUUUAAGUTT against Hinfp | inactive: 0.00861
GGGACAAAUGGAUCAAGAUTT against Ganab | inactive: 0.11
GGACCUCAGCUUACCUAGCTT against Stra6l | inactive: 0.669
GCUGACCAAAGUCACUCCCTT against Aqp1 | inactive: 0.13
